Experimental data: PubChem BioAssay AID652243 (Drosophila RNAi Screening Center, 2013)
The screen tested about 24,000 reagents; below is a random part of those that have a named target and a result. In the full data, 246 (1%) are marked active. 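Plates not normalised; calls are printed but the firefly/Renilla ratio behind them is not deposited; fold cut for lowering reported inconsistently.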 The raw values are shown without normalisation. The numbers tell different reagents against one gene apart. A plus sign joins genes that one reagent is predicted to hit. The record does not give: the amount of reagent.

Test: 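Fly regulators of androgen-dependent reporter output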 (primary screen)
Cells: Drosophila S2R+ cells
Knock-down reagent: long dsRNA against Drosophila genes
Duration: 72 h (48 h, then 24 h hormone)
Treatment: synthetic androgen R1881 at 10 nM for 24 h
Measured: 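Per-well raw luminescence of the androgen-driven firefly reporter and of the Renilla control, two replicates each, without normalisation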
Direction: firefly reporter light: higher = more light from androgen-responsive reporter; Renilla control light: higher = more constitutive control signal (cell number, transfection)
Rule for the call: 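Across duplicate plates, a knock-down whose log firefly/Renilla ratio shifted a set fold down or up from the GFP/LacZ control mean was a hit; the downward cut appears as both 1.5 and 3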
Meaning of the calls: active = hit: reporter lowered or raised; inactive = no hit

gene knocked down | reagent | firefly reporter light, replicate 1 | firefly reporter light, replicate 2 | Renilla control light, replicate 1 | Renilla control light, replicate 2 | Call
Jra (Jun-related antigen) | 1 | 8.07e5 | 6.36e5 | 2.25e6 | 2.23e6 | inactive
Jra (Jun-related antigen) | 2 | 2.60e5 | 3.63e5 | 3.90e5 | 7.75e5 | inactive
Jhbp15 (Juvenile hormone binding protein 15) | 1 | 2.39e5 | 2.85e5 | 3.03e6 | 3.33e6 | inactive
CG33225 | 1 | 1.91e5 | 2.10e5 | 2.25e5 | 2.74e5 | inactive
VhaPPA1-2 (Vacuolar H[+] ATPase PPA1 subunit 2) | 1 | 2.06e5 | 2.25e5 | 2.49e6 | 3.25e6 | inactive
VhaPPA1-2 (Vacuolar H[+] ATPase PPA1 subunit 2) | 2 | 1.21e6 | 1.36e6 | 1.28e6 | 1.33e6 | inactive
Hakai | 1 | 9.89e5 | 9.08e5 | 8.40e5 | 1.61e6 | inactive
yellow-e3 | 1 | 91171 | 1.13e5 | 1.52e6 | 2.36e6 | inactive
CG14252 | 1 | 1.51e5 | 1.41e5 | 1.79e6 | 1.96e6 | inactive
CG17059 | 1 | 4.57e5 | 2.78e5 | 2.54e6 | 2.33e6 | inactive
CG32767 | 1 | 64450 | 72206 | 2.04e6 | 1.76e6 | inactive
CG32767 | 2 | 5.45e5 | 8.79e5 | 9.49e5 | 1.25e6 | inactive
CG13796 | 1 | 9.29e5 | 1.17e6 | 9.80e5 | 9.78e5 | inactive
LSm3 (Like Sm 3) | 1 | 1.74e5 | 1.74e5 | 2.51e6 | 2.78e6 | inactive
CG13288 | 1 | 1.58e5 | 1.88e5 | 3.10e6 | 2.66e6 | inactive
Sgs5bis | 1 | 3.39e5 | 2.04e5 | 4.28e6 | 2.48e6 | inactive
CG7065 | 1 | 1.09e5 | 1.17e5 | 1.10e6 | 1.09e6 | inactive
CG7065 | 2 | 7.37e5 | 7.97e5 | 7.40e5 | 7.07e5 | inactive
RabX4 | 1 | 5.56e5 | 5.27e5 | 2.02e6 | 1.10e6 | inactive
RabX4 | 2 | 3.24e5 | 2.49e5 | 6.87e5 | 7.04e5 | inactive
Had2 (beta Hydroxy acid dehydrogenase 2) | 1 | 7.48e5 | 6.77e5 | 1.84e6 | 1.77e6 | inactive
Had2 (beta Hydroxy acid dehydrogenase 2) | 2 | 3.65e5 | 4.41e5 | 7.16e5 | 5.91e5 | inactive
G6P (Glucose-6-Phosphatase) | 1 | – | – | – | – | inactive
G6P (Glucose-6-Phosphatase) | 2 | 2.63e5 | 3.26e5 | 7.36e5 | 7.21e5 | inactive
G6P (Glucose-6-Phosphatase) | 3 | – | – | – | – | inactive
Src42A (Src oncogene at 42A) | 1 | 9.75e5 | 1.12e6 | 1.61e6 | 2.06e6 | inactive
Src42A (Src oncogene at 42A) | 2 | 2.81e5 | 2.83e5 | 2.18e6 | 2.10e6 | inactive
Src42A (Src oncogene at 42A) | 3 | 3.53e5 | 3.39e5 | 8.40e5 | 6.84e5 | inactive
Src42A (Src oncogene at 42A) | 4 | 5.72e5 | 5.50e5 | 1.41e6 | 1.27e6 | inactive
Src42A (Src oncogene at 42A) | 5 | – | – | – | – | inactive
Rcd5 (Reduction in Cnn dots 5) | 1 | 1.27e6 | 1.34e6 | 4.10e5 | 2.86e5 | inactive
Rcd5 (Reduction in Cnn dots 5) | 2 | 2.31e5 | 2.53e5 | 1.53e5 | 2.05e5 | inactive
ymp (yellow-emperor) | 1 | 4.85e5 | 5.59e5 | 6.09e5 | 9.38e5 | inactive
ymp (yellow-emperor) | 2 | 2.02e5 | 2.69e5 | 2.49e6 | 2.26e6 | inactive
CG13962 | 1 | 1.44e5 | 1.08e5 | 1.16e6 | 1.39e6 | inactive
CG13962 | 2 | 8.85e5 | 7.38e5 | 1.28e6 | 1.26e6 | inactive
sip1 (septin interacting protein 1) | 1 | 53495 | 70206 | 7.62e5 | 8.37e5 | inactive
sip1 (septin interacting protein 1) | 2 | 6.39e5 | 8.23e5 | 1.87e6 | 1.45e6 | inactive
sip1 (septin interacting protein 1) | 3 | 2.82e5 | 2.52e5 | 4.78e5 | 5.54e5 | inactive
Jasper (JIL-1 anchoring and stabilizing protein) | 1 | 1.03e5 | 75539 | 6.51e5 | 4.86e5 | inactive
MED21 (Mediator complex subunit 21) | 1 | 7.77e5 | 5.39e5 | 1.65e6 | 1.13e6 | inactive
CG13685 | 1 | 1.13e5 | 1.57e5 | 1.45e6 | 2.81e6 | inactive
CG13685 | 2 | 8.44e5 | 7.64e5 | 1.09e6 | 9.14e5 | inactive
sau (sauron) | 1 | 1.31e6 | 8.81e5 | 5.20e6 | 2.59e6 | inactive
kar (karmoisin) | 1 | 28733 | 71826 | 3.45e5 | 6.92e5 | inactive
mei-217 + mei-218 | 1 | 1.27e5 | 1.22e5 | 2.25e6 | 2.47e6 | inactive
CG6495 | 1 | 6.46e5 | 2.91e5 | 1.42e6 | 1.12e6 | inactive
CG6495 | 2 | 8.35e5 | 1.31e6 | 1.18e6 | 1.47e6 | inactive
mdu (meduse) | 1 | 1.03e6 | 9.06e5 | 2.02e6 | 1.68e6 | inactive
mdu (meduse) | 2 | 5.04e5 | 3.10e5 | 1.05e6 | 1.03e6 | inactive
Sfmbt (Scm-related gene containing four mbt domains) | 1 | 1.16e6 | 1.18e6 | 2.02e6 | 1.80e6 | inactive
Sfmbt (Scm-related gene containing four mbt domains) | 2 | 5.75e5 | 6.68e5 | 8.84e5 | 8.22e5 | inactive
CG15721 | 1 | 4.57e5 | 4.36e5 | 3.96e6 | 3.45e6 | inactive
CG5043 | 1 | 1.12e5 | 94608 | 1.39e6 | 1.15e6 | inactive
CG5043 | 2 | 5.08e5 | 7.02e5 | 7.12e5 | 8.01e5 | inactive
Grip71 | 1 | 1.70e5 | 1.09e5 | 1.28e6 | 1.08e6 | inactive
CG12105 | 1 | 6.52e5 | 1.18e6 | 1.23e6 | 1.26e6 | inactive
CG12105 | 2 | 8.97e5 | 7.87e5 | 8.52e5 | 6.63e5 | inactive

Ordered by “Renilla control light, replicate 1” (lowest first): some entries from above.
gene knocked down | reagent | firefly reporter light, replicate 1 | firefly reporter light, replicate 2 | Renilla control light, replicate 1 | Renilla control light, replicate 2 | Call
Hakai | 1 | 9.89e5 | 9.08e5 | 8.40e5 | 1.61e6 | inactive
CG32767 | 2 | 5.45e5 | 8.79e5 | 9.49e5 | 1.25e6 | inactive
VhaPPA1-2 (Vacuolar H[+] ATPase PPA1 subunit 2) | 2 | 1.21e6 | 1.36e6 | 1.28e6 | 1.33e6 | inactive
yellow-e3 | 1 | 91171 | 1.13e5 | 1.52e6 | 2.36e6 | inactive
CG14252 | 1 | 1.51e5 | 1.41e5 | 1.79e6 | 1.96e6 | inactive
CG32767 | 1 | 64450 | 72206 | 2.04e6 | 1.76e6 | inactive
CG17059 | 1 | 4.57e5 | 2.78e5 | 2.54e6 | 2.33e6 | inactive
